Data reported in patent publication US20040132971A1.
These are yes or no findings as the source states them, for the method shown. Binding calls can cover weak binding; strength is not graded here.

Target: T1, soluble RANKL (human RANKL amino acid residues 158-316) (human) (UniProt O14788)
T1 sequence (looked up): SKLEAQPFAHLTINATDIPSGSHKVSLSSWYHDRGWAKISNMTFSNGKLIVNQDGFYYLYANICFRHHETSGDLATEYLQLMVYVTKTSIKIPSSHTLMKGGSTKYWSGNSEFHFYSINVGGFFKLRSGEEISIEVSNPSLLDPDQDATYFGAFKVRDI
Experiment: Kd for RANKL by the kinetic analysis of Example 7 (flow cytometry on displayed variants or SPR; not specified)

Substance | binding
T71A,K108N-hOPG(22-194) (receptor) | binds
T154L-hOPG(22-194) (receptor) | binds
K108M,R111W-hOPG(22-194) (receptor) | binds
R111W-hOPG(22-194) (receptor) | binds
